Results from US9364000B2, “Method of controlling pests with fused heterocyclic compound” (Sumitomo Chemical Company, Limited, priority 2012, dated 2016).
Some results were stated once for a whole list of compounds, not compound by compound. At least one structure is not confirmed: it was looked up by name or label, or the drawing left a doubt.

Legend:
Format in all cases: in vivo
Culex pipiens pallens = assay: Test Example 10: Culex pipiens pallens last-instar larvae in treated water; conditions: active ingredient concentration 3.5 ppm in water, one day later
Plutella xylostella = assay: Test Example 6: spray on cabbage, Plutella xylostella larvae released; conditions: 500 ppm, 20 mL/cup sprayed on cabbage, second instar larvae, 5 days at 25° C.
[1] = tested on: Adoxophyes orana fasciata; assay: Test Example 7: spray on apple tree, Adoxophyes orana fasciata released; conditions: 500 ppm, 20 mL/cup sprayed on apple tree, first-instar, after 7 days
Musca domestica = assay: Test Example 8: filter paper with sucrose bait, Musca domestica female imagoes; conditions: 500 ppm, 0.7 ml on filter paper, after 24 hours

SMILES	death rate (Culex pipiens pallens) [%]	death rate (Plutella xylostella) [%]	death rate [1] [%]	death rate (Musca domestica) [%]
CCS(=O)(=O)c1ncccc1-c1nc2cc(SC(F)(F)F)cnc2n1C [compound 50]	≥ 91	–	–	–
CCSc1ncccc1-c1nc2cc(C(F)(F)C(F)(F)F)cnc2n1C [compound 47]	≥ 91	≥ 80	≥ 90	–
CCS(=O)(=O)c1cc(C(F)(F)F)ncc1-c1nc2cc(C(F)(F)F)cnc2n1C [compound 13]	–	–	≥ 90	–
CCS(=O)(=O)c1ccncc1-c1nc2cc(SC(F)(F)F)cnc2n1C [compound 54]	–	–	≥ 90	≥ 100
CCS(=O)(=O)c1ncccc1-c1nc2cc(C(F)(F)F)cnc2s1 [compound 56]	–	≥ 80	≥ 90	–
CCSc1ccncc1-c1nc2cc(C(F)(F)C(F)(F)F)cnc2n1C [compound 51]	–	–	≥ 90	–
CCS(=O)(=O)c1ccncc1-c1nc2cc(C(F)(F)C(F)(F)F)cnc2n1C [compound 52]	–	–	≥ 90	≥ 100
CCS(=O)(=O)c1ncccc1-c1nc2cc(C(F)(F)C(F)(F)F)cnc2n1C [compound 48]	–	≥ 80	≥ 90	–
